These results are taken from paper PMC4815267.

Sequences of proteins named here, by UniProt entry; tags and fusion partners are left off.
UniProt Q92793: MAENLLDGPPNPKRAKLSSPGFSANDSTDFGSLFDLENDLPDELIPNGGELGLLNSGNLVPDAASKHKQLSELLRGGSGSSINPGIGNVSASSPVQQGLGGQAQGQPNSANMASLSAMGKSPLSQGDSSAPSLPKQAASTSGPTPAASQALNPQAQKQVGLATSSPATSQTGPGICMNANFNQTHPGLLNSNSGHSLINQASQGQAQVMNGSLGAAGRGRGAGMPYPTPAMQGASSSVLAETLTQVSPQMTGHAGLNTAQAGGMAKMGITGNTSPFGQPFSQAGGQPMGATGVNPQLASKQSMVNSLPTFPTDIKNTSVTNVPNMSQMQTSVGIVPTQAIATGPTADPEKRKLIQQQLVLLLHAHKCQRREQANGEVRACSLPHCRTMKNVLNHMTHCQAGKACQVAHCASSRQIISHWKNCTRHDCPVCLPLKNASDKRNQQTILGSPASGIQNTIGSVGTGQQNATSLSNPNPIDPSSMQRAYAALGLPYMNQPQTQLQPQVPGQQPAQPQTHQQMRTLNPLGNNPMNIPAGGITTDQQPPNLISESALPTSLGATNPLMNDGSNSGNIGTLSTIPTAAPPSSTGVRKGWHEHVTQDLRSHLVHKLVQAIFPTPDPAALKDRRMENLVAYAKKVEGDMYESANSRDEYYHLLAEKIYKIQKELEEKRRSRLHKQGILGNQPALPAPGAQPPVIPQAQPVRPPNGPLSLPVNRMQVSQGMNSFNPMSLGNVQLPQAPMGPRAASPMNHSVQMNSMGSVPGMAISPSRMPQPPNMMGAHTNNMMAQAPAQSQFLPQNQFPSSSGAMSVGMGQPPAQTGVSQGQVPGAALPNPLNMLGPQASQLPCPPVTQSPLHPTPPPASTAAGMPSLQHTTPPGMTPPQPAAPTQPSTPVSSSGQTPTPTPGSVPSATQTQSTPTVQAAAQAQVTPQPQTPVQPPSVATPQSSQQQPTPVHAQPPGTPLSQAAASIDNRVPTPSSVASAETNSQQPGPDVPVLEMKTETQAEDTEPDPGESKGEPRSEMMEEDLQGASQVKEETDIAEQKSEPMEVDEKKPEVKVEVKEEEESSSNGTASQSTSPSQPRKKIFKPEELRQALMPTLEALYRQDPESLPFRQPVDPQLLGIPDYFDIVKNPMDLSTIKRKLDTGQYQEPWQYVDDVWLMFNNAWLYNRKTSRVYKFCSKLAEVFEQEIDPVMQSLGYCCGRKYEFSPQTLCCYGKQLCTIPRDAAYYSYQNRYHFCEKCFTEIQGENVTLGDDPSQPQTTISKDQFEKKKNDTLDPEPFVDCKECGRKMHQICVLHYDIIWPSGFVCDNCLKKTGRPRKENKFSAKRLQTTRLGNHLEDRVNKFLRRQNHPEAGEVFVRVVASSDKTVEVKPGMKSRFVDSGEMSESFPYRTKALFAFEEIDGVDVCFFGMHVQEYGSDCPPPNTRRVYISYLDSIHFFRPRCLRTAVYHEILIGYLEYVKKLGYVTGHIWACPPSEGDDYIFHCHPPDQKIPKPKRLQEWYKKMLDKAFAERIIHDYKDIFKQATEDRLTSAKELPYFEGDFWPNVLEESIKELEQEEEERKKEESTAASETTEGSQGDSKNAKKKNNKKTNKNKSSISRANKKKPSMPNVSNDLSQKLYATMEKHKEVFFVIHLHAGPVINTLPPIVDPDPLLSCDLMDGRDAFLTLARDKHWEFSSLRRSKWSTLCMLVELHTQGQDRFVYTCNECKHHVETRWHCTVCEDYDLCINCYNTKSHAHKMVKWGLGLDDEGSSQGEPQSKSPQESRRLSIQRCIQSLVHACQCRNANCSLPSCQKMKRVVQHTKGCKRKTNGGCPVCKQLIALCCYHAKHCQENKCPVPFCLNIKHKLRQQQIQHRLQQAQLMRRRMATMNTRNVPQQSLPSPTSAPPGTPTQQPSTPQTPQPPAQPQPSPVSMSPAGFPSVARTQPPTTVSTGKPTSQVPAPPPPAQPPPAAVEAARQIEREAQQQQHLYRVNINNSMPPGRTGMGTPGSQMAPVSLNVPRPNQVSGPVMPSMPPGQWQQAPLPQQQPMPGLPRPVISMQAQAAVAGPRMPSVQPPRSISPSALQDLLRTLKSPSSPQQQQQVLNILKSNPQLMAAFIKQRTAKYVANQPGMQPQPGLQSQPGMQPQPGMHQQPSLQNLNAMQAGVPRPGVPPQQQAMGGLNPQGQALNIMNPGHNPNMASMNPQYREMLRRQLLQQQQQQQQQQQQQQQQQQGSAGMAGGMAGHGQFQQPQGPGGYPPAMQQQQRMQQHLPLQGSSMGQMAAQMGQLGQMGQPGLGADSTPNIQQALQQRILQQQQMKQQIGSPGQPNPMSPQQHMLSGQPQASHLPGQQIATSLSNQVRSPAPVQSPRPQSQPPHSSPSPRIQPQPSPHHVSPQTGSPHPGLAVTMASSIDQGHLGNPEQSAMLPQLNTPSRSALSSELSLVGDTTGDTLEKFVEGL

Assay [1] addresses T1, Nemo-like kinase (human (endogenous in LNCaP)) (UniProt Q9UBE8).
T1 sequence: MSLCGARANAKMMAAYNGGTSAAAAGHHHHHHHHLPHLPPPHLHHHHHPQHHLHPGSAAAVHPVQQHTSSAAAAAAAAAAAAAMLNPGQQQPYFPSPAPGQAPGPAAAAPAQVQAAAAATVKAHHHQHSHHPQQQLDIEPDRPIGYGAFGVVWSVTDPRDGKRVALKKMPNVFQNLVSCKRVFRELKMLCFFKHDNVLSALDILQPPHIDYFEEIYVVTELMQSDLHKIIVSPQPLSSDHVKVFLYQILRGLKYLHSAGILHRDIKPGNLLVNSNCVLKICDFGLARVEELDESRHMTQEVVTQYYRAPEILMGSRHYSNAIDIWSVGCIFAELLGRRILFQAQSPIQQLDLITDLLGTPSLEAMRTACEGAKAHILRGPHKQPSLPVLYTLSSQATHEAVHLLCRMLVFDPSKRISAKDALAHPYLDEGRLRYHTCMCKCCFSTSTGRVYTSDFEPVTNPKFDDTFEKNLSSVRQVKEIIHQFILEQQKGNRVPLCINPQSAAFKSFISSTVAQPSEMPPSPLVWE
As to the kind of experiment: co-IP; 500 ug LNCaP whole cell lysate incubated with 2 ug rabbit anti-NLK or mouse anti-CBP antibody overnight at 4 °C, protein A-Sepharose beads 2 h at 4 °C; control IPs with rabbit or mouse IgG; precipitates analysed by Western blot. On the technique in general: In western blotting, separated proteins are transferred to a membrane and probed.

Assay [2] addresses CREB binding protein (human (endogenous in LNCaP)) (UniProt Q92793). The assay is described as above.

Results are given in words; binding and its absence hold for the method and conditions named. Binding seen in cells or lysates may run through a third protein. Some results given as binding are weak or reduced against the parent protein; the word gives no strength.

For “CREB binding protein (from UniProt Q92793 1-2442)”, the binding entry in assay [1] was “binds”.

B1: Nemo-like kinase (protein, UniProt Q9UBE8 1-527)
chain: T1 sequence
As for B1, the binding entry in assay [2] was “binds”.
